Results are given in words; binding and its absence hold for the method and conditions named. Binding seen in cells or lysates may run through a third protein. Here binding means that the protein was enriched with, or labelled near, the bait; the list need not be complete. Tags and fused reporters may be left off the sequences shown.
How the values were obtained:
[1] = biological target: T1, GSDMB-2-HA (Gasdermin B isoform 2, HA-tagged), stably expressed in MCF7 cells (human) (UniProt Q8TAX9); assay: affinity purification with mass spectrometry; immunoprecipitation from MCF7-G1 and MCF7-G2 cell lines followed by mass spectrometry (MALDI peptide mass fingerprinting and MS/MS); detailed protocol in Protocol S1 and S2
T1 sequence: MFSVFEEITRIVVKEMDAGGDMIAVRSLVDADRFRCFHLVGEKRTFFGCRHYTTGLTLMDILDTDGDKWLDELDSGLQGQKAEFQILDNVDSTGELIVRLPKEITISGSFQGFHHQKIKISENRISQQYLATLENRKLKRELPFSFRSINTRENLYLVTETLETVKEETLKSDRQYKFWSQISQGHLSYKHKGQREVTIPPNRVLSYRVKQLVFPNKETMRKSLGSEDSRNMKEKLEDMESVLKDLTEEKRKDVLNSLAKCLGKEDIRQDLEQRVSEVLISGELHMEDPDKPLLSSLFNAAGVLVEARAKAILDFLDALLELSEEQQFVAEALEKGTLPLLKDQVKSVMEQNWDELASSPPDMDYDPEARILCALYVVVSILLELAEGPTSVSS

Sequences of proteins named here, by UniProt entry; tags and fusion partners are left off.
UniProt P08238: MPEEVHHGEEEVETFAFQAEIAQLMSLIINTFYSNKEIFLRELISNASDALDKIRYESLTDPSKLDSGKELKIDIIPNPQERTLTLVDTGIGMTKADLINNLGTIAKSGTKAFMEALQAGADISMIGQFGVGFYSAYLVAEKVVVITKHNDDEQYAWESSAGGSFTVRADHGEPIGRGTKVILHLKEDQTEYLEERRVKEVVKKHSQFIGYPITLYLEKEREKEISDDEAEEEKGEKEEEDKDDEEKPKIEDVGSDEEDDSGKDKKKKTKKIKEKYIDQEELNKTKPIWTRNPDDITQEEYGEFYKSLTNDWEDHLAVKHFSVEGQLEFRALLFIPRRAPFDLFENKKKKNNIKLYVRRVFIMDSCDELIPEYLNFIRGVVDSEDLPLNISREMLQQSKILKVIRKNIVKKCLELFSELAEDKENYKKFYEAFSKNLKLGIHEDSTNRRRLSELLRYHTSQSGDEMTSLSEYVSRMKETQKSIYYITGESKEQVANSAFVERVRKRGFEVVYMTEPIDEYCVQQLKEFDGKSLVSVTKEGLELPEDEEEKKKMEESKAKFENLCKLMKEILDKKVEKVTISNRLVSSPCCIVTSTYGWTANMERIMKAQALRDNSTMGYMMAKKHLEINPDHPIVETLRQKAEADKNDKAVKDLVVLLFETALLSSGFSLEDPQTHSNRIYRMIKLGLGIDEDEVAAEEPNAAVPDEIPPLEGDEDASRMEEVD

[2] = biological target: T2, GSDMB-1-HA (Gasdermin B isoform 1, HA-tagged), stably expressed in MCF7 cells (human) (UniProt Q8TAX9); assay: as above
T2 sequence: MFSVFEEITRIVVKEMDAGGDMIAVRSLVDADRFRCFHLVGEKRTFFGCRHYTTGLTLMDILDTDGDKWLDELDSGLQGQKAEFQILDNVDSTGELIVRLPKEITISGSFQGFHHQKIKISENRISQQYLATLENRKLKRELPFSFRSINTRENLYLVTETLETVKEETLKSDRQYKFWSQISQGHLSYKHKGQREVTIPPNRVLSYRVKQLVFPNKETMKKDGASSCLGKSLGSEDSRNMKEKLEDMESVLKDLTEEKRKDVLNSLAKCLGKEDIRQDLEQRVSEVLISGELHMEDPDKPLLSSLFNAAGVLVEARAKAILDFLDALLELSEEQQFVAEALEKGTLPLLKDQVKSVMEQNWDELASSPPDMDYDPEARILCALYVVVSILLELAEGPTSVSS

With “Heat shock protein 90 β (Hsp90β), endogenous in MCF7 cells (from UniProt P08238 1-724)” as the substance, how does the binding [1] read?
Its binding is “binds”.

What about the binding [2] of the same substance?
The binding was “binds”.

Reference: publication PMC3967990
